The comparison behind a weaker result is the experiment's own reference, which may not be listed here. For some of these results: Construct, isoform or probe ends are uncertain for at least one entry.
What was measured:
APOBEC3A (commercial) = APOBEC3A (commercial) (UniProt P31941); experiment: activity assay; conditions: poisoned primer assay; weak activity on RNA; purified recombinant protein; protein details: New England Biolabs
anti-m6A antibody Ab05 = experiment: pull-down; conditions: purified native protein, protein details: Synaptic Systems cat. no. 345E11, label: 5'-FAM
anti-m5C antibody Ab16 = experiment: pull-down; conditions: purified native protein, protein details: Thermo Fisher cat. no. MA5-24694, label: 5'-FAM
[1] = tested on: anti-inosine antibody Ab10; experiment: pull-down; conditions: off-target in mixture, purified native protein, protein details: Diagenode cat. no. C15200251, label: 5'-FAM

Protein sequences, listed by entry. Tags and fused reporters are not part of them. Lines headed by an entry give the natural chain unless they say otherwise; changes in a name come on top.
UniProt P31941: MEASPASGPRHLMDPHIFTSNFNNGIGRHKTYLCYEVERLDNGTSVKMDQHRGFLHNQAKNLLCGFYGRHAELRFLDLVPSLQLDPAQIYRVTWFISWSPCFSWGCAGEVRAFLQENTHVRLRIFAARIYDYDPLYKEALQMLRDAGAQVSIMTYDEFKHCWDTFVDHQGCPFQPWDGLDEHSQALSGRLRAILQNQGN

“AGAACAGAACAGAACAGAUGAUAGGAAGGAUGAAGGUGAGU [PPA C template, RNA]” was tested, and the “activity on this sequence” value (APOBEC3A (commercial)) was “less active”.

“CGUCGGCAGCGUCAGAUGAUAUUCGAAGUAUGAC [m5C RNA target]”: binds more weakly (anti-m6A antibody Ab05; m5C, off-target in mixture); binds (anti-m5C antibody Ab16; m5C, protein G beads, mixture of targets, specificity 3 to 44 over N30 across antibodies); binds more weakly ([1]; m5C).

“UCGUCGGCAGCGUCAGAUGCAUAAGGUCAAUAUUAAGUAUAGACTGAGTG [m6A RNA target with 3' 8b DNA spacer]”: binds (anti-m6A antibody Ab05; m6A, RNA with 3' DNA ACTGAGTG [m6A at 29, RNA 1-42, DNA 43-50], protein G beads, mixture of targets, specificity 3 to 44 over N30 across antibodies, letters built from the parent sequence and the stated change); binds more weakly (anti-m5C antibody Ab16; m6A, RNA with 3' DNA ACTGAGTG [m6A at 29, RNA 1-42, DNA 43-50], off-target in mixture, letters built from the parent sequence and the stated change); binds more weakly ([1]; m6A, RNA with 3' DNA ACTGAGTG [m6A at 29, RNA 1-42, DNA 43-50], letters built from the parent sequence and the stated change).
